The test deals with HLA-A*02 HA-1(H) (…) pMHC on T2 cells (human). In words: cell-based or functional assay.

B1: HA-1 Ftcr (KP7 HA-1H FTCRalpha LIR1 TICD and KP7 HA-1H FTCRbeta LIR1 TICD) (receptor)
TCR alpha: KNEVEQSPQNLTAQEGEFITINCSYSVGISALHWLQQHPGGGIVSLFMLSSGKKKHGRLIATINIQEKHSSLHITASHPRDSAVYICAVRSVSGAGSYQLTFGKGTKLSVIPNIQNPDPAVYQLRDSKSSDKSVCLFTDFDSQTNVSQSKDSDVYITDKCVLDMRSMDFKSNSAVAWSNKSDFACANAFNNSIIPEDTFFPSPESSCDVKLVEKSFETDTNLNFQNLSVVIGILVAVILLLLLLLLLFLILRHRRQGKHWTSTQRKADFQHPAGAVGPEPTDRGLQWRSSPAADAQEENLYAAVKHTQPEDGVEMDTRSPHDEDPQAVTYAEVKHSRPRREMASPPSPLSGEFLDTKDRQAEEDRQMDTEAAASEAPQDVTYAQLHSLTLRREATEPPPSQEGPSPAVPSIYATLAIH
TCR beta: DTGVSQNPRHKITKRGQNVTFRCDPISEHNRLYWYRQTLGQGPEFLTYFQNEAQLEKSRLLSDRFSAERPKGSFSTLEIQRTEQGDSAMYLCASSIDSFNEQFFGPGTRLTVLEDLKNVFPPEVAVFEPSEAEISHTQKATLVCLATGFYPDHVELSWWVNGKEVHSGVCTDPQPLKEQPALNDSRYCLSSRLRVSATFWQNPRNHFRCQVQFYGLSENDEWTQDRAKPVTQIVSAEAWGRADCGFTSESYQQGVLSVVIGILVAVILLLLLLLLLFLILRHRRQGKHWTSTQRKADFQHPAGAVGPEPTDRGLQWRSSPAADAQEENLYAAVKHTQPEDGVEMDTRSPHDEDPQAVTYAEVKHSRPRREMASPPSPLSGEFLDTKDRQAEEDRQMDTEAAASEAPQDVTYAQLHSLTLRREATEPPPSQEGPSPAVPSIYATLAIH
As to B1, the “additional right shift in activity of the NY-ESO-1 TCR” value was approximately 10 fold, the “blocking of the KRAS TCR (shift in activity)” value was approximately 5 fold, the “downward shift of Emax of the KRAS TCR” value is 2.7 fold and the “downward shift of Emax of the NY-ESO-1 TCR” value was determined as 1.5 fold.

The values are drawn from patent US20240173352A1 (A2 BIOTHERAPEUTICS, published 2024).
